The source of these data is the supplement of paper PMC10849652.

Sequences of proteins named here, by UniProt entry; tags and fusion partners are left off. A change or cut given only in a name is not applied to a line headed by its entry.
UniProt P61086: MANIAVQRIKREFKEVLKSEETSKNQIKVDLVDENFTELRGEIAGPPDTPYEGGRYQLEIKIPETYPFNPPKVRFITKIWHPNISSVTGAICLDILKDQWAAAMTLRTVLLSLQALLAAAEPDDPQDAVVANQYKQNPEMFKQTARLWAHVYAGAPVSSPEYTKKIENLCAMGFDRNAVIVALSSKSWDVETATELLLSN
UniProt P11441: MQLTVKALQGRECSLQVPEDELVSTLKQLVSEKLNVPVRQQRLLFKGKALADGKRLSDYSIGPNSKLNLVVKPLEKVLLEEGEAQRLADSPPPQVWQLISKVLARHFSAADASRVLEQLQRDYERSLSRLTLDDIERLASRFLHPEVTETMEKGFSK
UniProt Q9P2K2: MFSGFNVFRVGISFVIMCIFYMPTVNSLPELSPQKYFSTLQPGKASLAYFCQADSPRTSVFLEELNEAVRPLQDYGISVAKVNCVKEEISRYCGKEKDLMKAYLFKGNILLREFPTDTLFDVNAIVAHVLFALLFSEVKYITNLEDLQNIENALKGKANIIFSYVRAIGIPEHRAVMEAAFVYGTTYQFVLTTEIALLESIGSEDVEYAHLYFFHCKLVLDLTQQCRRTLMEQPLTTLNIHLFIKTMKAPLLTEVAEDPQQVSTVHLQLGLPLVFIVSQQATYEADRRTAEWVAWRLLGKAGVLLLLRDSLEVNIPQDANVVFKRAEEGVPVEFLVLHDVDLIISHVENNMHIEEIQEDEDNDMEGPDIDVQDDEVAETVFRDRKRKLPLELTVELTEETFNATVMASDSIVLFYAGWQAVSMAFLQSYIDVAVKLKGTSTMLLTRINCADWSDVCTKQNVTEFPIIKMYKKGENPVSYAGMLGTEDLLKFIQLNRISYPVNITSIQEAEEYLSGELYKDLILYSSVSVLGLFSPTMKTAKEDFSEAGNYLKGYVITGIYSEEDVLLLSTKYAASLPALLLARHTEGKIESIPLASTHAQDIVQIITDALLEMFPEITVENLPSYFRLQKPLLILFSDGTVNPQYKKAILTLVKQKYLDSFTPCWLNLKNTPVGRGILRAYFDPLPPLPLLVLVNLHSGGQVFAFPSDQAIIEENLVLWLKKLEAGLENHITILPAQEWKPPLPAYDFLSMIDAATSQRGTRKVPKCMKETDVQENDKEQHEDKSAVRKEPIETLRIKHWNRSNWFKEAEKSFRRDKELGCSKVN
UniProt Q9NPG3, whole entry, looked up: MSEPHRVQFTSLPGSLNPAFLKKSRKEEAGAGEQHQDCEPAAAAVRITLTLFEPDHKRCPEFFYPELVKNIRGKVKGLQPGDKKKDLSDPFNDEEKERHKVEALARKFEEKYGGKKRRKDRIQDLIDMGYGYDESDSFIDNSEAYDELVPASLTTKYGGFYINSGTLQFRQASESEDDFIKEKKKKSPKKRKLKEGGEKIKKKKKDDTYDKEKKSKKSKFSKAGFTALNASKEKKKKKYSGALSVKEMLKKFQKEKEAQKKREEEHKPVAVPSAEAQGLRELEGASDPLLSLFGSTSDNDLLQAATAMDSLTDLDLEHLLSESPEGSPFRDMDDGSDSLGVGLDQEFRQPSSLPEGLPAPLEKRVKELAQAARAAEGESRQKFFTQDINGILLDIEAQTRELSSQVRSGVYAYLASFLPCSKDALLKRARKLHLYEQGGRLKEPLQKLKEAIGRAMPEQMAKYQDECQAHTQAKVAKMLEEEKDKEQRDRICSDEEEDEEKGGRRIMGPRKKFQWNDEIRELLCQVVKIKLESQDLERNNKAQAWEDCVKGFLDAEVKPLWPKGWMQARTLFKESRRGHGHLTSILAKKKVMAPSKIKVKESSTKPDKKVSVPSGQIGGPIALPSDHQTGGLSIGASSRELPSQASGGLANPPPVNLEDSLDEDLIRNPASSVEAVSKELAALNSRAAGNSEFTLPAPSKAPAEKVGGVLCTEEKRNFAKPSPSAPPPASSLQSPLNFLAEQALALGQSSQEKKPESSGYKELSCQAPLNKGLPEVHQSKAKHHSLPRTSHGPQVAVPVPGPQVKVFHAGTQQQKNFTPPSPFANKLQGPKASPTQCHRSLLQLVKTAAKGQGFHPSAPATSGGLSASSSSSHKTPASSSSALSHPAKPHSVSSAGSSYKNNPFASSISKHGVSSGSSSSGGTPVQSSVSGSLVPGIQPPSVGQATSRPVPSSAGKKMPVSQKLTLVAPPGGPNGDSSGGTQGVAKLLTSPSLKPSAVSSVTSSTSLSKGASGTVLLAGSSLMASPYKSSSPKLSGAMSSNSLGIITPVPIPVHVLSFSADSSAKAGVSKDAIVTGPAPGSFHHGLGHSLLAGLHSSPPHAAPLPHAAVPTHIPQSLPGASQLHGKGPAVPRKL
UniProt P0DPH7, whole entry, looked up: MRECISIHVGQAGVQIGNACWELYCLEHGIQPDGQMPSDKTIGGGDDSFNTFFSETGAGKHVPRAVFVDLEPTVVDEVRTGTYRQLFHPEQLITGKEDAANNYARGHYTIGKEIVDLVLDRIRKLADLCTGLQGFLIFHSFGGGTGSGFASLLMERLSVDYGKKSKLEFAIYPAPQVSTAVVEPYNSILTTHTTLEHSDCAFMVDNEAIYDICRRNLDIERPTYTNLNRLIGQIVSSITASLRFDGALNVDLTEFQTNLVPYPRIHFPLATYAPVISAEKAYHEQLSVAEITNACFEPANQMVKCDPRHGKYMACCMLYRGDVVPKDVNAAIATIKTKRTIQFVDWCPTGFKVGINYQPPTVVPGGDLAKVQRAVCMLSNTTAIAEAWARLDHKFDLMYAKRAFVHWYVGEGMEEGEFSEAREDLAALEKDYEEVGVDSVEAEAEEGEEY
UniProt P60604: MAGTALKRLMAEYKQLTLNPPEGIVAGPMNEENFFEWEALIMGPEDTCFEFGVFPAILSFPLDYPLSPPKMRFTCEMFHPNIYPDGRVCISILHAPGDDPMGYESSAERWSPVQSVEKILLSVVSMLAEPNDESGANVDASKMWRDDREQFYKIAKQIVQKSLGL
UniProt Q9BRA2: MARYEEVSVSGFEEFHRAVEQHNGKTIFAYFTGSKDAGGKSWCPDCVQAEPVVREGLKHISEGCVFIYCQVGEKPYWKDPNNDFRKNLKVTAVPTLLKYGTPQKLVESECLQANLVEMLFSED
UniProt O94888: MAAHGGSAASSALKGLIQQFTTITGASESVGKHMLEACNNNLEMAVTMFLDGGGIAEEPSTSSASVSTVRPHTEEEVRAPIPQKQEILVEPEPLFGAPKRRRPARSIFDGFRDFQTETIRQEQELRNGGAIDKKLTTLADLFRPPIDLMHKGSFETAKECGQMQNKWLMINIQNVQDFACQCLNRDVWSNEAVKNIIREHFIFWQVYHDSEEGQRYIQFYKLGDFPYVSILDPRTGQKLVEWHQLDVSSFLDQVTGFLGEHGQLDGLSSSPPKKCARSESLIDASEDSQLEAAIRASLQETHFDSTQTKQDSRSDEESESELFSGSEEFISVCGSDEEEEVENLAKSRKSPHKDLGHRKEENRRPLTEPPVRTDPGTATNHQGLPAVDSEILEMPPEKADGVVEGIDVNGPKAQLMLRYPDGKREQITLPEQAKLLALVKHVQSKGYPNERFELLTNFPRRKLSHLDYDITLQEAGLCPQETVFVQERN
UniProt Q9GZZ9, whole entry, looked up: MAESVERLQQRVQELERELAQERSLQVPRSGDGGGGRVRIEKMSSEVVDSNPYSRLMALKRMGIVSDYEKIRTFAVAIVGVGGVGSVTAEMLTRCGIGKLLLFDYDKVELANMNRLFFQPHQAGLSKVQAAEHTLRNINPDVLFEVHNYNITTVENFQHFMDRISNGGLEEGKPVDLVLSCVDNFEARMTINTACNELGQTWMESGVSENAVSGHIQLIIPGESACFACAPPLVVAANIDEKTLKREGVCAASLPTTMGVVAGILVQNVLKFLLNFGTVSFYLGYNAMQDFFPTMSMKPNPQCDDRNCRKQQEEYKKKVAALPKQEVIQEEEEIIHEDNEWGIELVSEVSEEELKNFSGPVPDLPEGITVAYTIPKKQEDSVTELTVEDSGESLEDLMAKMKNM
UniProt Q969M7: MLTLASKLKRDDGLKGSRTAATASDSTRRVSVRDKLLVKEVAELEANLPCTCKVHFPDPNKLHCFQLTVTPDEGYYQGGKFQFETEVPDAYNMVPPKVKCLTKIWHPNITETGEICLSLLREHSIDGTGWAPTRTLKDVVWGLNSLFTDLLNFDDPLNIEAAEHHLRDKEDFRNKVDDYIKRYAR
UniProt Q05086: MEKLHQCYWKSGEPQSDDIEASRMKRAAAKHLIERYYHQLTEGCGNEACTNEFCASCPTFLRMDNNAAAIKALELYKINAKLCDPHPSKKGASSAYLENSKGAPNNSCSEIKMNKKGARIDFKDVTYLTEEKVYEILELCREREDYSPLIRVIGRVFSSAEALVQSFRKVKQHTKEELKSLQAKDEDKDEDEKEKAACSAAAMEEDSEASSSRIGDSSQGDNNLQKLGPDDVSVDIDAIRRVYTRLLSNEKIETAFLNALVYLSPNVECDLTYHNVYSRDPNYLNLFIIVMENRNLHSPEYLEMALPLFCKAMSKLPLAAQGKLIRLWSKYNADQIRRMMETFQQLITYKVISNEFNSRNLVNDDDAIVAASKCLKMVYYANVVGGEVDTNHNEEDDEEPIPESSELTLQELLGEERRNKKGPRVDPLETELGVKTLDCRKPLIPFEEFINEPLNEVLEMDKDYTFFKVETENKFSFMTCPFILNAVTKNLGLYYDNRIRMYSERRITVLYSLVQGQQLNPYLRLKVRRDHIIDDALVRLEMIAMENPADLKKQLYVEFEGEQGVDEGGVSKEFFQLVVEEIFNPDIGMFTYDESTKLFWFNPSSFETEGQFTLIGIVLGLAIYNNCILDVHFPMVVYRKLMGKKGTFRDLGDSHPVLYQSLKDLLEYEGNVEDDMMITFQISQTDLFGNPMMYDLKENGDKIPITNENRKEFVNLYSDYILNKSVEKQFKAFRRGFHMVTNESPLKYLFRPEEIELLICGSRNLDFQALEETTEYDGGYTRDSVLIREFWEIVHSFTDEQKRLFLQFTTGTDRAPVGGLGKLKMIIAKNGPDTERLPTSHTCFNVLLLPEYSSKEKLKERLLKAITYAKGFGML
UniProt Q9UMX0, whole entry, looked up: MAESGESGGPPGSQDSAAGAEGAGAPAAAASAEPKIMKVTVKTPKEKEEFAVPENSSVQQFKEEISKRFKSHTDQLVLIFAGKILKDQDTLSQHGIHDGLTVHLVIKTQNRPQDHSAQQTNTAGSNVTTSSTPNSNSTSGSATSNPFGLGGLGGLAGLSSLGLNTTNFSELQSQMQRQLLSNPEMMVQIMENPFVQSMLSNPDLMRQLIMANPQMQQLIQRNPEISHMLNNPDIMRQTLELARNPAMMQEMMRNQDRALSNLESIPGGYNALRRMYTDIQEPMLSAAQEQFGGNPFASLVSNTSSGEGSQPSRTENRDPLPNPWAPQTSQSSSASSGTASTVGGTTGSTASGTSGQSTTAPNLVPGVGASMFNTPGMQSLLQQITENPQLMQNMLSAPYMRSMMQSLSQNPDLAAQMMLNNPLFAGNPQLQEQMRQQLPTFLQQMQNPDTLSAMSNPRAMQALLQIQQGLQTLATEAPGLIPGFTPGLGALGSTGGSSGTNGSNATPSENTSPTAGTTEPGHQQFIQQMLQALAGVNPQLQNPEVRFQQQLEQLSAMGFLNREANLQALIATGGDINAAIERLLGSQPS
UniProt Q9H6E5: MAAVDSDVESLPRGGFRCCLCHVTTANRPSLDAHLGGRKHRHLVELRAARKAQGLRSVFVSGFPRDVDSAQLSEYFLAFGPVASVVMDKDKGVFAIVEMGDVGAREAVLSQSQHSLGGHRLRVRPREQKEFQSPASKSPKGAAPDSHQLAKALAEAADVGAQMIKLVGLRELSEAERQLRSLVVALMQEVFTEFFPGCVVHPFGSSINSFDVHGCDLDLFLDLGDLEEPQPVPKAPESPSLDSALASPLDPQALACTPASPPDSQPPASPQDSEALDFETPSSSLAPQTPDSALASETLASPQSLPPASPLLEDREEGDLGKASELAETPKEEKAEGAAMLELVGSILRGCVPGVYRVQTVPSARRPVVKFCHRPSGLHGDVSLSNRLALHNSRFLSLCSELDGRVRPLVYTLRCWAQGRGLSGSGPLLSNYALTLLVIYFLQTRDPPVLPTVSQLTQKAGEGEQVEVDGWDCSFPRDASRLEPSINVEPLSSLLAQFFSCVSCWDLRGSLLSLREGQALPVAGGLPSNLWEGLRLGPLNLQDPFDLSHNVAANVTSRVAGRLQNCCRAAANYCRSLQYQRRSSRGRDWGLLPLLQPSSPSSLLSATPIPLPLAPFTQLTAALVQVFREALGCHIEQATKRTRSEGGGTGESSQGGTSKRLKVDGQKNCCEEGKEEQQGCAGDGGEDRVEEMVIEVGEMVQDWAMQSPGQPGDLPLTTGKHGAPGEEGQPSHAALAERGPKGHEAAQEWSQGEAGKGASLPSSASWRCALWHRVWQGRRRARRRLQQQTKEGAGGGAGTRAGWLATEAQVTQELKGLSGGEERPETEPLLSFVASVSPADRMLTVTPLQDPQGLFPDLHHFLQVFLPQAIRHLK

This is one part of the list.

Compound in one experiment: CN1CCN(CCOc2cc(OC3CCOCC3)c3c(Nc4c(Cl)ccc5c4OCO5)ncnc3c2)CC1 [saracatinib]
The experiment can be described thus: log2 fold change, soluble protein after heating vs DMSO (PISA); higher = thermal stabilisation; K562 lysate, 10 uM; active = over 0.2 and 3.5 SD of the protein, either way, in both replicates (recomputed). The method, boiled down: (§1)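 The values are log-two fold changes in thermal stability compared with solvent controls and come from duplicates. They were obtained by TMTpro 16plex LC-MS/MS, with channel sums equalised, on the supernatant after 21,000xg for 90 min. That supernatant came from crude K562 extract at 1 mg/mL protein treated with 10 μM compound for 30 min, heated for 3 min across 48°C-58°C, pooled and brought to 0.5% NP-40 at 4°C.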
As for UBE2K (UniProt P61086), the log2 fold change is inactive: -0.023.
The same measure, in the same setting: for TXNRD2 (UniProt Q9NNW7) the value was inactive: 0; for UBL4A (UniProt P11441), inactive: 0.028.
Still for that read-out and setting: for U2AF1 isoform 2 (UniProt Q01081) the value was inactive: 0.049; for TXNDC16 (UniProt Q9P2K2), inactive: 0.068.

Compound in another experiment: CN1CCN(c2nc(C3=C(c4c[nH]c5ccccc45)C(=O)NC3=O)c3ccccc3n2)CC1 [sotrastaurin]
The experiment is described as above. In short, it runs like this: as §1
For TUBB2A (UniProt Q13885), the log2 fold change was inactive: 0.017.
Still for that read-out and setting: for UBE2D1 (UniProt P51668) the value was inactive: -0.021; for TUBB4A (UniProt M0QYM7), inactive: 0.111.
Same read-out and setting: to UBN1 (UniProt Q9NPG3) belongs inactive: 0.133; to TUBA3C (UniProt P0DPH7), inactive: 0.048.
The same measure, in the same setting: to UBE2G2 (UniProt P60604) belongs inactive: -0.079; to UBE2I (UniProt H3BQQ9), inactive: -0.026.
Regarding TXNDC17 (UniProt Q9BRA2), the log2 fold change is inactive: -0.022.
On the same count and under the same terms, to UBE3B (UniProt Q7Z3V4) belongs inactive: 0.055; to UBXN7 (UniProt O94888), inactive: 0.017.
For UBA5 (UniProt Q9GZZ9), the log2 fold change is inactive: -0.005.
On the same count and under the same terms, for UBE2F isoform 2 (UniProt Q969M7) the value was inactive: -0.138; for UCK2 (UniProt Q9BZX2), inactive: 0.024; for UBE3A (UniProt Q05086), inactive: -0.004.
Same read-out and setting: for UBE2E3 (UniProt Q969T4) the value was inactive: 0.037; for UBIAD1 (UniProt Q9Y5Z9), inactive: -0.079.
On the same count and under the same terms, for UBQLN1 isoform 2 (UniProt Q9UMX0) the value was inactive: 0.034.
For UBE2N (UniProt P61088), the log2 fold change was inactive: -0.062.
Consider UBR4 (UniProt Q5T4S7), for which the log2 fold change is inactive: 0.007.
With UBXN2A (UniProt P68543), the log2 fold change is inactive: -0.005.
Still for that read-out and setting: for UBE2J2 (UniProt Q8N2K1) the value was inactive: 0.056; for TUFM (UniProt P49411), inactive: 0.007; for TUT1 (UniProt Q9H6E5), inactive: 0.016.
For TUBB6 (UniProt K7ES63), the log2 fold change was inactive: 0.036.
Still for that read-out and setting: to UBE2K (UniProt P61086) belongs inactive: -0.028; to TXNRD2 (UniProt Q9NNW7), inactive: -0.021.
Turning to UBL4A (UniProt P11441), the log2 fold change is inactive: 0.
On the same count and under the same terms, to U2AF1 isoform 2 (UniProt Q01081) belongs inactive: -0.007; to TXNDC16 (UniProt Q9P2K2), inactive: -0.099; to UBAP2L (UniProt F8W726), inactive: -0.052.
